Screening data, single-dose tests

Protein sequences, listed by entry. Tags and fused reporters are not part of them. Residues count along the entry.
UniProt P9WPC5, whole entry: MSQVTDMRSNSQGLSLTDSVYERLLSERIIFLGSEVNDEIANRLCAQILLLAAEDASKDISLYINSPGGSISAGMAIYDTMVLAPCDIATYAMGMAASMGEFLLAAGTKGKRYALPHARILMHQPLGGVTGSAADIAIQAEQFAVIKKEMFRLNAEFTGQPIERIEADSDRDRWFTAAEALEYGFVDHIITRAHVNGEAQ
UniProt P9WPC3, whole entry partner: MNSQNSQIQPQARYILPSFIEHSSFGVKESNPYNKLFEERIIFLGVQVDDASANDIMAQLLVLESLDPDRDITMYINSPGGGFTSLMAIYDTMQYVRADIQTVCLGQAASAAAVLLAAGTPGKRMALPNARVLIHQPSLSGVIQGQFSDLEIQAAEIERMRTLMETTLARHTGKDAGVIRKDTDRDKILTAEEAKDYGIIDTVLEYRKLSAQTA
UniProt A4I591, 1-473: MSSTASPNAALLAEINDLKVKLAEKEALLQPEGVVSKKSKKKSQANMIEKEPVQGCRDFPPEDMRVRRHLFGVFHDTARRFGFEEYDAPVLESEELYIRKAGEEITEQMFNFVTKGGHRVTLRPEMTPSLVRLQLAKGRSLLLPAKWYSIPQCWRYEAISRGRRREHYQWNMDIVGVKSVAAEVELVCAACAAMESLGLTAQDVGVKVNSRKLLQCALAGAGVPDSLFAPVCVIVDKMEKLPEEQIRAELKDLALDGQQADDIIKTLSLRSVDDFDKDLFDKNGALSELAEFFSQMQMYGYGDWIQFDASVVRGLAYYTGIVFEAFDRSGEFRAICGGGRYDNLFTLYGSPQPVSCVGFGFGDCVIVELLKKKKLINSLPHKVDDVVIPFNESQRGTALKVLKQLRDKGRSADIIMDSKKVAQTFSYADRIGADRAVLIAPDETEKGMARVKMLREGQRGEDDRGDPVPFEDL

Data taken from ChEMBL document CHEMBL3988442, “University of Dundee, Small-Polar-MMV Screening Library” (2021).

Values are the deposited “Percent Effect”, in %. The controls that fix the scale are not given in the record; negative values are as filed. The compounds are a random part of those screened.

ClpP1P2: 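Protease assay of ClpP1P2, read by the AMC dye that it sets free. Target: ClpP1P2, Mycobacterium tuberculosis (UniProt P9WPC5 and UniProt P9WPC3). Concentration: 50 µM. Direction is inferred from only a few compounds that gave an IC50; most scored high, so higher reads as stronger inhibition. Most other retested compounds had strongly negative values. Size under these conditions: about 69,000 compounds, about 10 of them at 50% or above in at least one test.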
LiHisRS: 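Histidine-tRNA ligase, Leishmania infantum (UniProt A4I591). Enzyme assay of histidyl-tRNA synthetase; the read-out is not stated. Tested at 30 µM. Direction is inferred from retests: higher values go with stronger inhibition. The assay is labelled LdHisRS but filed under L. infantum. Size under these conditions: about 69,000 compounds, about 410 of them at 50% or above in at least one test.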

compound | ClpP1P2 | LiHisRS
CCc1cc(O)n2nc(C3CCN(C(=O)c4cccnc4)CC3)cc2n1 | 4.579 | 2.817
COCCCn1ccc(NCc2cnc(C(C)(C)C)s2)n1 | -5.791 | -5.714
CN1CCCC(C(=O)N2CCC(Oc3ccc(C#N)cn3)CC2)C1 (stereo unspecified) | -3.906 | 8.264
COc1ccc(OC)c(-n2nnnc2SCC2CCCCO2)c1 (stereo unspecified) | -0.791 | 14.29
O=C(NCCc1ccncc1)[C@H]1C[C@@H]2CCN(c3nncs3)C[C@H]2O1 | -9.743 | 8.333
CCCc1nc(N2Cc3cnn(Cc4ccc(F)cc4)c3C2)no1 | 0.9517 | 20.39
COCc1nc(N2CC[C@H](N(C)C)C2)c2cnn(C)c2n1 | -7.39 | 9.89
CC(C)C(CCO)NC(=O)Nc1cc(F)ccc1-n1cccn1 (stereo unspecified) | -8.935 | 5.479
O=C(OCc1ccccc1)C1CCCN1Cc1nc(C2CC2)no1 (stereo unspecified) | -1.488 | -1.667
CSc1nccc(NCc2cc3n(n2)CCCN(S(C)(=O)=O)C3)n1 | -1.117 | 25
COc1cccc(C(=O)N2CCCC2c2ncc3c(n2)CCN(C)C3)c1 (stereo unspecified) | 5.143 | 30.43
Cn1cnnc1C1CCCN(C(=O)c2cc(Cl)cc(Cl)c2)C1 (stereo unspecified) | -21.23 | 13.27
CNC(=O)C(C)CN(C)C(=O)Nc1cc(-n2cccc2)ccc1F (stereo unspecified) | -6.69 | -5.479
COc1cc2c(cc1C(=O)N1CC(c3ccncc3)C1)CCC2 | 3.827 | 11.11
CCSc1cc(C(=O)N(CC(F)F)C(C)C)ccn1 | -0.2983 | 6.202
O=C(NCC(=O)N1CCCCC1)c1sccc1C1CC1 | 6.229 | 1.333
CCN(CC)c1ccc(CNS(=O)(=O)C2CCOCC2)cc1F | -0.9166 | 20.51
CN(C)C(=O)CN1CCC(c2cccc(Cc3ccc(F)cc3)n2)CC1 | 11.48 | 7.292
O=c1c2cccc(F)c2ncn1CCN1CCOCC1 | 6.777 | 21.13
CN1CCN(Cc2ccc(Cl)cc2)CC1C(=O)O (stereo unspecified) | -8.222 | 18.37
CCCN(CC1CC1)C(=O)Cn1ccccc1=O | -4.457 | 13.16
CCCn1nc(C(=O)NCc2nnc3n2CCC3)ccc1=O | 4.426 | 3.226
CN(C)C(=O)c1c[nH]nc1C1CCN(S(=O)(=O)c2cccc(Cl)c2)CC1 | -15.96 | 5.634
CN(Cc1n[nH]c(=O)n1CCc1ccccc1F)S(C)(=O)=O | -4.49 | 16.95
N#CCCN(Cc1ccco1)C(=O)C1CCCc2ccccc21 (stereo unspecified) | -9.975 | 7.143
CCCC1COCCN1Cc1ccc(S(=O)(=O)NC)cc1 (stereo unspecified) | 0.9651 | 1.333
CC(C)Nc1cccc(C(=O)NCC(O)c2cccc(F)c2)c1 (stereo unspecified) | -7.885 | 11.11
Cc1ccc(NC2CCCN(CCCc3ccccc3)C2)nn1 (stereo unspecified) | 0.7717 | 26.6
COc1cccc2[nH]cc(CCNC(=O)N3CCC[C@H]3CO)c12 | -1.106 | -3.175
CSCc1cccc(S(=O)(=O)NCCO)c1 | -2.761 | 15.93
O=C(Cc1ccon1)NC1CC2(CCC2)Oc2ccccc21 (stereo unspecified) | -2.326 | 18.75
O=C(NC[C@]12COC[C@H]1CN(CC1CCOCC1)C2)c1ccco1 | -9.464 | 21
CCC(C(=O)NCCc1coc(-c2ccc(C)cc2)n1)N(C)C (stereo unspecified) | -1.017 | 4.145
COc1ccc2c(c1)C(NCCc1ccccn1)CCCO2 (stereo unspecified) | -8.44 | 22.22
COc1ccc(CN(C)CC2(O)CCNC2)cc1 (stereo unspecified) | -1.884 | 4.317
Cc1ccc(N2CC3(COCCN(Cc4cccnc4)C3)OCC2=O)s1 (stereo unspecified) | -14.97 | 4.854
Cc1ccc(N(C)[C@@H]2CC[C@@H]3CN(C(=O)Cc4cccs4)C[C@@H]32)nn1 | 2.347 | 19.86
O=C([C@H]1CCCO1)N1CCC2(CC1)C(=O)N(CC1CC1)c1ccccc12 | -5.082 | 9.615
CCC(C)[C@H](NC(=O)c1cc(Br)ccc1-n1cnnn1)C(=O)OC (stereo partly specified) | -0.5042 | -3.883
Cc1occc1C(=O)N1CCc2ncnc(C3CCOC3)c2CC1 (stereo unspecified) | -2.153 | 11
CC(C)NC(=O)NCC(Cc1ccc(F)cc1)C(N)=O (stereo unspecified) | 1.86 | -15.73
CC[C@@]1(O)CCN(Cc2cc(C3CCCCC3)no2)C[C@H]1O | -18.08 | 5.128
COC1COC2(CCN(Cc3ccc(Cl)cc3)CC2)C1 (stereo unspecified) | -2.338 | -2.564
COc1cccc(Cc2nnc(SC3CCOC3=O)o2)c1 (stereo unspecified) | -11.74 | 10.68
Cn1c(N)nnc1SCc1ccc(Cl)cc1Br | -14.86 | 20.97
COc1c(C2CCCN2C(=O)c2cccc(C)n2)c(C)nn1C (stereo unspecified) | -7.751 | 6.957
COCCN1CC[C@H](O)[C@@H]1Cc1ccccc1 | 8.454 | 13.59
CC(C)c1ncc(CN2C[C@@H](CN3CCC(O)CC3)[C@@H](CO)C2)cn1 | 9.685 | 27.27
CC(=O)N1CCN(Cc2ccc3c(c2)OCCO3)CC(O)C1 (stereo unspecified) | -18.75 | 7.5
CC(=O)Nc1ccc(Oc2ccc3c(c2)OCO3)nc1 | -0.2426 | 21.74
CC1CN(Cc2ccccc2)CCCN1CCNS(C)(=O)=O (stereo unspecified) | 17.12 | 2.74
COc1cc(N2CCCC(c3nccn3Cc3ccncc3)C2)ncn1 (stereo unspecified) | -2.286 | 10.96
CO[C@@H]1CN(Cc2scnc2C)[C@@H]2CCCO[C@@H]21 | 33.77 | 28.3
CN(C)CC(=O)N1C[C@@H]2CC[C@H](Oc3ccccc3)[C@@H]2C1 | 2.536 | 13.68
COc1ccc(CCNC(=O)Nc2cc(C)nn2C)cc1 | 1.356 | 12.12
CC(=O)Nc1nc(CN2CCCC2Cn2cccn2)cs1 (stereo unspecified) | -21.87 | 6.4
Cc1ccc(CN2C[C@H]3C[C@H](C(=O)NCc4cccnc4)[C@@H](C2)O3)cc1 | 14.14 | 0
CCC(CC)NC(=O)c1cncc(Br)c1 | -1.849 | 13.7
COCCN(Cc1cnn(C)c1)C(=O)C1CCN(C2CCCCC2)CC1 | 9.314 | 10.2
Cc1nc(C)n(CC2CCCN(c3ncnc4c3CCC4)C2)n1 (stereo unspecified) | -2.556 | -2.381
O=C(c1ccoc1)N1CCc2ncnc(NCc3ccccn3)c2CC1 | 4.492 | 10
Cc1nc(NC(=O)C(C)N2CCN(c3ccccc3F)CC2)sc1C (stereo unspecified) | -1.593 | 2.198
CCn1cc(NC(=O)NCC(C)N2CCCC2)cn1 (stereo unspecified) | 3.762 | 15.25
CCN(C(=O)C1Cc2cc(Cl)ccc2O1)C1CC1 (stereo unspecified) | 22.73 | 10.75
O=C(Cc1ccc(-n2cnnn2)cc1)Nc1cnn(CC(F)F)c1 | -12.7 | 14.61
O=C(NCC1(O)CCOc2ccccc21)Nc1ccc2c(c1)OCO2 (stereo unspecified) | -15.51 | 15.25
O=C1CSC(c2ccc(O)c(Cl)c2)c2c(n(C3CCOCC3)[nH]c2=O)N1 (stereo unspecified) | -1.784 | 13.59
CCn1c(CN2CCOC(Cn3cncn3)C2)nc2c(F)cccc21 (stereo unspecified) | 1.509 | 0
O=C(c1cc[nH]n1)N1CCC2(CC1)CC(Oc1cccnc1)CO2 (stereo unspecified) | 3.099 | 11.5
c1ccc(-c2nc(CCNC3CCOC4(CCOCC4)C3)no2)cc1 (stereo unspecified) | -12.52 | 19.28
Cc1noc([C@H]2C[C@@H]3CCN(CC4CCOCC4)C[C@H]3O2)n1 | 0.7319 | 26.32
CC(=O)NCc1nnc2n1CCN(Cc1cccs1)C2 | 0.5872 | 5.128
CC(C)S(=O)(=O)NC(=O)CC(c1ccccc1)C(F)(F)F (stereo unspecified) | -2.508 | 12.82
CCc1nc(CN2CCCC2C(=O)NC)cs1 (stereo unspecified) | -4.574 | 11.39
Cc1cnn(CCNCC(=O)NCC2(c3ccccc3)CCC2)c1 | 9.393 | 8
Cc1cc(NCc2cccc(C#N)c2)ccc1C(=O)N(C)C | -5.02 | 12.09
CC(C)N1CCC(C(=O)NC[C@H]2CCc3ccccc3O2)CC1 | 1.439 | 7.527
CCNC(=O)N1C[C@@H]2OCC(=O)N(Cc3cccnc3)[C@@H]2C1 | -4.494 | 22.97

The last 5 entries again:

For CCc1nc(CN2CCCC2C(=O)NC)cs1 (stereo unspecified) the result was ClpP1P2: -4.574%; LiHisRS: 11.39%.
For Cc1cnn(CCNCC(=O)NCC2(c3ccccc3)CCC2)c1 the result was ClpP1P2: 9.393%; LiHisRS: 8%.
For Cc1cc(NCc2cccc(C#N)c2)ccc1C(=O)N(C)C the result was ClpP1P2: -5.02%; LiHisRS: 12.09%.
For CC(C)N1CCC(C(=O)NC[C@H]2CCc3ccccc3O2)CC1 the result was ClpP1P2: 1.439%; LiHisRS: 7.527%.
For CCNC(=O)N1C[C@@H]2OCC(=O)N(Cc3cccnc3)[C@@H]2C1 the result was ClpP1P2: -4.494%; LiHisRS: 22.97%.